The values below come from paper doi:10.1101/2025.03.27.645708.

Sequences of proteins named here, by UniProt entry; tags and fusion partners are left off.
UniProt O00463: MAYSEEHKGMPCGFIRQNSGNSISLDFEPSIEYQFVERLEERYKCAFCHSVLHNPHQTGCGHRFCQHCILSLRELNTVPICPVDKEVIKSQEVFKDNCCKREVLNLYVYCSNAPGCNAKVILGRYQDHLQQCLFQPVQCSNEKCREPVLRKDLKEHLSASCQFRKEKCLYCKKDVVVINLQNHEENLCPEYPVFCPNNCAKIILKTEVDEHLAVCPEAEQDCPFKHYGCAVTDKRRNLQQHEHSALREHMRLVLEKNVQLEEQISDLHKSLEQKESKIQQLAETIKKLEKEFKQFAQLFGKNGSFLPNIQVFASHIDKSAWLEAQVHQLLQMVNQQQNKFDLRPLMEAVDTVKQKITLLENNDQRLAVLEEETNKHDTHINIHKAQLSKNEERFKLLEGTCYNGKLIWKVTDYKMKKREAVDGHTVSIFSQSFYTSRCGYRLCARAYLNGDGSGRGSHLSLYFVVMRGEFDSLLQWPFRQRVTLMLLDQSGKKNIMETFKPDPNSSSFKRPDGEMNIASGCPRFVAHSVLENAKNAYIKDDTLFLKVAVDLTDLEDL
UniProt Q7Z6Z7: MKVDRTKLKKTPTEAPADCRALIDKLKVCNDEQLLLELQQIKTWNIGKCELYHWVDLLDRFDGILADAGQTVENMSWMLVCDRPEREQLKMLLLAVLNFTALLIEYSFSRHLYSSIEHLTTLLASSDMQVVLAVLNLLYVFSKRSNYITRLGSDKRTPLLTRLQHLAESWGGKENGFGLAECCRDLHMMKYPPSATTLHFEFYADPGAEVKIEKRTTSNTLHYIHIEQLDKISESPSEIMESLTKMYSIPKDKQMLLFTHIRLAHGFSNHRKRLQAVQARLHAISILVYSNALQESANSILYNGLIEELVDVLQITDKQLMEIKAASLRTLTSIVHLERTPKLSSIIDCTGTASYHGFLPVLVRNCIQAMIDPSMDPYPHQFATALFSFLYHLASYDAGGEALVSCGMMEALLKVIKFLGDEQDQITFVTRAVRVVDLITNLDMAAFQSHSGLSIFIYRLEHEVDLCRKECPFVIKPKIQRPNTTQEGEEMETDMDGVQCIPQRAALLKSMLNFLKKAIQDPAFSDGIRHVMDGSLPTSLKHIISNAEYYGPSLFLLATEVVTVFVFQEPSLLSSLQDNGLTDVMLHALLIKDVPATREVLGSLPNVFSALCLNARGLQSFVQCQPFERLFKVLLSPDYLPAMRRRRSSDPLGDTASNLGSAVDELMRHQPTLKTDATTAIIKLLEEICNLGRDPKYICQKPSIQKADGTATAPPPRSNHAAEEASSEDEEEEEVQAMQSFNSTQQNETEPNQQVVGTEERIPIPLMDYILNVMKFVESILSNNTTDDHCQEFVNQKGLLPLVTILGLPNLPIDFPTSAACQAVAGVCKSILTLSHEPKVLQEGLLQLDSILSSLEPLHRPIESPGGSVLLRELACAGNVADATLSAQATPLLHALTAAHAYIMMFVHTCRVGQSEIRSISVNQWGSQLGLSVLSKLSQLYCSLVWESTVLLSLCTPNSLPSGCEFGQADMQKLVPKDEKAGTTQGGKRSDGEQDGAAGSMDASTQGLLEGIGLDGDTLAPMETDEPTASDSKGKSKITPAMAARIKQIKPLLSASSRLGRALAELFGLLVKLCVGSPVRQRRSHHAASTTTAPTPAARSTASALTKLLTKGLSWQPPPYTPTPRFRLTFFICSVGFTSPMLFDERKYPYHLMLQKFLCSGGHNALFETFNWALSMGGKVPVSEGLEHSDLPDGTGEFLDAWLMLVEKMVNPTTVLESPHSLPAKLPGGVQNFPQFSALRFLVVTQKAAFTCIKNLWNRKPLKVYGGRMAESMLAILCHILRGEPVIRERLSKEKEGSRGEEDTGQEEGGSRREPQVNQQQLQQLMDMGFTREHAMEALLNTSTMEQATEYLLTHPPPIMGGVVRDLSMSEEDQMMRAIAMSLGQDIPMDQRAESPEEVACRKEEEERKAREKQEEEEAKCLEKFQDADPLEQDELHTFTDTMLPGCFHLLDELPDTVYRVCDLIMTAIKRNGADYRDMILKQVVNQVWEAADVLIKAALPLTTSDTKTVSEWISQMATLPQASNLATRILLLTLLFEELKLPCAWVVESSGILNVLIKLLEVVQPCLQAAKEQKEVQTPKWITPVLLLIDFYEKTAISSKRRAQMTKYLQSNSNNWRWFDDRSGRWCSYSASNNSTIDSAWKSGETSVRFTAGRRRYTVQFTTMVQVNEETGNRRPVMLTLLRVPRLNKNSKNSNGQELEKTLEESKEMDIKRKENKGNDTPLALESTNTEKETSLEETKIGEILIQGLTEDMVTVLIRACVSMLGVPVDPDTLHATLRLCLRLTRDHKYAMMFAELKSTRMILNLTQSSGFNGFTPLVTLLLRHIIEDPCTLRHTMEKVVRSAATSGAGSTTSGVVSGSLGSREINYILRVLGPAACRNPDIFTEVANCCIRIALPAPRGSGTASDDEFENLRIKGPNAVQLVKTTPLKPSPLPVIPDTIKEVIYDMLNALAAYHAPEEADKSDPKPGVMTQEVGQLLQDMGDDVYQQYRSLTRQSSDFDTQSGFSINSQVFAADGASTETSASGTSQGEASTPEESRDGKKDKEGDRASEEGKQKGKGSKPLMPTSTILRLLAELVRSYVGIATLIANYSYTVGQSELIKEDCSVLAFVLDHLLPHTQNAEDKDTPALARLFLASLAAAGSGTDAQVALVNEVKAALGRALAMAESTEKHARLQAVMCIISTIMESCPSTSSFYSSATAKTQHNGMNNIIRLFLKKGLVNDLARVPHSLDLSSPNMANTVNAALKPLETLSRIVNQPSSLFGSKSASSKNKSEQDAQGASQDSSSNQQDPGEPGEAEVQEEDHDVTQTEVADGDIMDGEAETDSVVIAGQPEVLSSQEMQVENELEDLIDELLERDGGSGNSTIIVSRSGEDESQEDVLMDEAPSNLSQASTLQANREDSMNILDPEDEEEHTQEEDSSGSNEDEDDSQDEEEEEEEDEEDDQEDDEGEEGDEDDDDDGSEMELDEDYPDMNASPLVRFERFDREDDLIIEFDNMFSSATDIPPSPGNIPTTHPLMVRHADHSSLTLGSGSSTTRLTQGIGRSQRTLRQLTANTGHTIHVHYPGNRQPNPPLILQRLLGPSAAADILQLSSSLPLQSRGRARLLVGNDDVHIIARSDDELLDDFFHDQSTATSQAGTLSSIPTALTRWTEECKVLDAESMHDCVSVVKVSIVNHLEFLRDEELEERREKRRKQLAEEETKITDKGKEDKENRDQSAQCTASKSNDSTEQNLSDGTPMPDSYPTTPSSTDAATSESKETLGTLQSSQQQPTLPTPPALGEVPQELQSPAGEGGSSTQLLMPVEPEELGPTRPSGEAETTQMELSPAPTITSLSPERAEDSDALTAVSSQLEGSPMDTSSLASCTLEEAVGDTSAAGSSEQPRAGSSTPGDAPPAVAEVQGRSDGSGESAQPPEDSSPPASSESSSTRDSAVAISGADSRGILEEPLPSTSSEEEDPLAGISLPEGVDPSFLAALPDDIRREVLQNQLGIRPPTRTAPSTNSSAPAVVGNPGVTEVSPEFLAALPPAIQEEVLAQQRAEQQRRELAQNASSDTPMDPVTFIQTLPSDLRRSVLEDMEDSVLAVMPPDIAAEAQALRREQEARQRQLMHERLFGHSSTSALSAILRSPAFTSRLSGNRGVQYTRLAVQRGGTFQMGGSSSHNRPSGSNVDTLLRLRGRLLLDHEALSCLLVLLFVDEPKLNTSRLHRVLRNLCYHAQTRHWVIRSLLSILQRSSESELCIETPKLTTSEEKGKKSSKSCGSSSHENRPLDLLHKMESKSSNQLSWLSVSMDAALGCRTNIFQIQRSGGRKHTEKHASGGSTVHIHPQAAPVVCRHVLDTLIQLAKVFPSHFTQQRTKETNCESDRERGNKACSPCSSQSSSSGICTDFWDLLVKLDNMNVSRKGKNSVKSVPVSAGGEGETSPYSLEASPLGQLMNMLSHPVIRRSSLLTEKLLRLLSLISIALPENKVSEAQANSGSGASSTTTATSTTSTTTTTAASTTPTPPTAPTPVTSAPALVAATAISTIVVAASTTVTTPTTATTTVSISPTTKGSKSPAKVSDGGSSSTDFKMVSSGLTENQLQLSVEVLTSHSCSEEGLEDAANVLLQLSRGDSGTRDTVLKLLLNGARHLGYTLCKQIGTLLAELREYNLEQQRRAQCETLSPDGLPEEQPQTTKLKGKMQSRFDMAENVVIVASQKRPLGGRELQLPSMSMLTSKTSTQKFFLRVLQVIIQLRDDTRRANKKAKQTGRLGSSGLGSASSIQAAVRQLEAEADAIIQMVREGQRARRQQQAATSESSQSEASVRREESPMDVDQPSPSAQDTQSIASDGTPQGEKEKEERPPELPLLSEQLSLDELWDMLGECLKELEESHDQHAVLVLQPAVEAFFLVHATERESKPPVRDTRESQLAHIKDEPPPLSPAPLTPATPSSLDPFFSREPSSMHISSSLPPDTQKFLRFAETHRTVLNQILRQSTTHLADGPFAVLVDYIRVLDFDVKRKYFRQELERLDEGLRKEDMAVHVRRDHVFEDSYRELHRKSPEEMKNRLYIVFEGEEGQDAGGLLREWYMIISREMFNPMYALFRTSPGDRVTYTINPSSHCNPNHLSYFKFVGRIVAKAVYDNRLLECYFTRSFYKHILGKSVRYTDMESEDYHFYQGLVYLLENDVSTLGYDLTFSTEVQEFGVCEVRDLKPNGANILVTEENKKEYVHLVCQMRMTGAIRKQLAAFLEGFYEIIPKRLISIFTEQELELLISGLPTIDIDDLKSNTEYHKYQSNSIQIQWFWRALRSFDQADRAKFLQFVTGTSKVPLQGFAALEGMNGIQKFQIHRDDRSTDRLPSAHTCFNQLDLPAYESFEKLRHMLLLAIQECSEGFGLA

Results are given in words; binding and its absence hold for the method and conditions named. Binding seen in cells or lysates may run through a third protein. Some results given as binding are weak or reduced against the parent protein; the word gives no strength.

In this experiment the target is FLAG-TRAF5 (UniProt O00463). Kind of experiment: co-IP.

In the case of “endogenous Huwe1 (from UniProt Q7Z6Z7 1-4374) (enzyme)”, the binding entry was “binds”.
